# The campaign covered roughly 340,000 compounds. About 170 (0.05%) were called active. Inconclusive results, whose numbers are uncertain, are shown with a selection of clear calls. The call rests on the fitted dose curve; in most records, active means well fitted inhibition curve with a large enough effect in the signal ratio, with a control signal flat (not every such curve was filed as active); inconclusive means small, poorly fitted or top-dose-only effect, or effect the other way, or a change in a side signal; inactive means flat fitted curve, though single readings scatter; the % refers to the signal ratio. Potencies of inconclusive entries are doubtful fits and often do not repeat.
# Assay: qHTS Assay to Find Inhibitors of Chronic Active B-Cell Receptor Signaling;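 on activity change, negative = inhibition: plate controls were basal doxycycline-induced cells for no effect and cells given 10 µM MG132 for full effect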
# Settings: ABC-DLBCL IkBa-CBG/CBR reporter, luminescence ratio (green luciferase fused to IkBa over red control in TMD8 lymphoma cells), 4 h; activity change, negative = inhibition: at 46.1 µM (top of the series)
# Method in brief: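 Cell line TMD8 (human ABC DLBCL), stably expressing tet-inducible CBG68-IkBa fusion and CBR; IMDM/0.5% FBS; cpd up to 46 uM; dox induction, 4 h, 37C/5% CO2; dual luminescence; green/red ratio; MG132 control.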
# Potency means the concentration at half of the fitted maximal effect.
SMILES,"activity change, negative = inhibition",Potency
COc1cc(OC)cc(C(=O)O/N=C(\N)c2ccncc2)c1,inconclusive: 1.43%,–
NNC(=O)CSCc1nc(-c2ccccc2)cs1,inconclusive: 0.974%,–
COc1ccc(CCN2C(=S)NC3CC2(C)Oc2ccc([N+](=O)[O-])cc23)cc1OC (stereo unspecified),–,"inconclusive: 14.6 µM [falling, partial curve, poor fit]"
CCOC(=O)c1sc(NC(=O)CNCc2ccccn2)c(C(=O)OCC)c1C,inactive: -5.13%,–
COc1ccc(Cc2nc(-c3ccc(-n4cccc4)cc3)no2)cc1,inconclusive: 6.25%,–
CC(=O)c1ccc(OCc2cc(C(=O)N(C)C(C)c3nccs3)no2)cc1 (stereo unspecified),inconclusive: 12.4%,–
O=C(/C=C/c1cccs1)Nc1cccc(NC(=O)/C=C/c2cccs2)n1,inconclusive: -3.1%,–
Cc1nc(SCC(=O)Nc2ccc3c(c2)OCO3)c(C#N)c2c1CCCC2,–,"inconclusive: 4.61 µM [falling, partial curve, poor fit]"
O=C(Nc1nc(-c2cc(F)ccc2F)cs1)c1ccccn1,inconclusive: 4.97%,–
COc1ccc(O)c(-c2cc(-c3ccc(F)cc3)n[nH]2)c1,inactive: -7.71%,–
CCOC(=O)c1nnn(-c2nonc2N)c1CNc1ccc(C)c(Br)c1,inconclusive: -10.5%,–
O=C(Cn1c(=O)oc2ccccc21)Nc1ccc(Cl)cc1Cl,inactive: 0.406%,–
C=CCOC(=O)C1=C(C)NC(SCC(=O)N(CC)CC)=C(C#N)C1c1ccccc1 (stereo unspecified),inconclusive: 4.69%,–
CCN1CCN(C(=O)Nc2ccc(Cc3ccc(NC(=O)N4CCN(CC)CC4)cc3)cc2)CC1,–,"inconclusive: 17.8 µM [falling, single point]"
COc1ccc(NC(=O)c2cc(-c3ccccc3)on2)cc1,inconclusive: -1.4%,–
CCOc1cc(NC(=O)c2ccco2)c(OCC)cc1NC(=O)Cc1cccc(OC)c1,inconclusive: -1.54%,–
O=C(NCCN1CCN(c2ccccc2F)CC1)c1ccc2nc3ccccc3c(=O)n2c1,inconclusive: 6.92%,–
COc1ccc(N/C=C/C(=O)C(F)(F)F)cc1,inconclusive: 21.3%,–
Cn1c2ccccc2c2cc(C(=O)NNC(=O)CCl)sc21,–,"inconclusive: 15.8 µM [falling, partial curve]"
S=c1[nH]nc(Cc2cccc3ccccc23)n1-c1ccccc1,inconclusive: -43.9%,–
COc1ccc(NC(=O)CCCn2c(=O)oc3ccccc32)cc1Cl,inconclusive: 4%,–

SMILES,"activity change, negative = inhibition",Potency
O=C(CCc1ccccc1)N1CCN(c2ccccc2F)CC1,inconclusive: 9.35%,–
COCCn1c(=O)[nH]c2cc(C(=O)Nc3cc(OC)c(OC)c(OC)c3)ccc2c1=O,inactive: 18%,–
COc1ccc(OCc2ccc(C(=O)O)cc2)cc1,–,"inconclusive: 5.17 µM [falling, single point]"
Cc1nnc(NCCc2ccccc2)c2ccccc12,–,"inconclusive: 25.1 µM [falling, partial curve]"
O=C(/C=C/c1ccc(F)cc1)N1CCCN(C(=O)/C=C/c2ccc(F)cc2)CC1,inconclusive: 2.78%,–
CN(C=[N+](C)C)c1cccc2c1C(=O)c1ccccc1C2=O,inactive: 4.5%,–
Cc1ccc(-c2c3c(=O)n(C)c(=O)n(C)c3cn2Cc2ccccc2)cc1,inactive: -1.51%,–
O=C(c1ccc(CS(=O)Cc2ccc(Cl)cc2)o1)N1CCN(c2cccc(Cl)c2)CC1 (stereo unspecified),inconclusive: -6.55%,–
O=C(NCc1ccco1)c1ccc(-c2ccccc2Cl)o1,inconclusive: -21.8%,–
COc1ccc(Cl)cc1-n1c(C)cc(C=O)c1C,inconclusive: 1.31%,–
NC(=O)c1ccccc1N/C=C/C(=O)c1ccc(F)cc1,–,"inconclusive: 3.16 µM [falling, partial curve]"
O=C(CSc1nnc(-c2ccc(Cl)cc2)n1-c1ccc(Cl)cc1)N/N=C/c1ccco1,inconclusive: 5.51%,–
NC(=S)n1[nH]c(-c2ccc([N+](=O)[O-])cc2)c(N=Nc2ccccc2[N+](=O)[O-])c1=O,inactive: -24.4%,–
Cc1ccc(NC(=O)CNc2ccccc2CN(C)C2CCCCC2)cc1,–,"inconclusive: 10 µM [falling, partial curve, poor fit]"
O=C1CC(N(O)c2ccccc2)C(=O)N1c1ccc(Cl)c(Cl)c1 (stereo unspecified),–,"inconclusive: 3.16 µM [falling, full curve, poor fit]"
Cc1cc(NC(=O)c2ccccc2F)ccc1-c1nc2ccccc2s1,inactive: -2.98%,–
O=C(CCC(=O)c1ccccc1)NCCc1c[nH]c2ccccc12,inconclusive: 4.03%,–
N#Cc1c(NC(=O)c2cc(C3CC3)on2)sc2c1CCC2,inconclusive: 7.57%,–
CCOC(=O)c1cc2n(c1N)-c1ccccc1C2=O,–,"inconclusive: 0.58 µM [rising, full curve]"
Cc1ccc(-c2cc3c(nn2)-c2ccccc2C3=O)cc1,inactive: -12.2%,–
Cn1c(=O)c2c(nc(CN3CCc4ccccc4C3)n2Cc2cccc(Cl)c2)n(C)c1=O,inactive: -15.1%,–

# Looked up above.
# Entry for `COc1cc(OC)cc(C(=O)O/N=C(\N)c2ccncc2)c1` under activity change, negative = inhibition: inconclusive: 1.43%
# Entry for `O=C(c1ccc(CS(=O)Cc2ccc(Cl)cc2)o1)N1CCN(c2cccc(Cl)c2)CC1` (stereo unspecified) under activity change, negative = inhibition: inconclusive: -6.55%
# Entry for `S=c1[nH]nc(Cc2cccc3ccccc23)n1-c1ccccc1` under activity change, negative = inhibition: inconclusive: -43.9%

# (next part)

SMILES,"activity change, negative = inhibition",Potency
COc1ccc(CCn2c(C)nc3c(c(=O)c4ccccc4n3C)c2=O)cc1,–,"inconclusive: 13 µM [falling, partial curve]"
O=C(Nc1ccc(S(=O)(=O)NC2=NCCCCC2)cc1)c1cccs1,inactive: 3.29%,–
CC(C)(C)NC(=O)CSc1nc2ccc(Nc3nc(N4CCOCC4)nc(N4CCOCC4)n3)cc2s1,–,"inconclusive: 11.2 µM [falling, partial curve]"
COc1ccc2[nH]c3c(c2c1)CCN1C(=O)C(CC(=O)NC/C=C(\C)CCC=C(C)C)C[C@H](C(=O)N(C(C)C)C(C)C)[C@@]31C (stereo partly specified),inactive: 0.124%,–
c1ccc(CSc2nnnn2-c2ccc3c(c2)OCCO3)nc1,inconclusive: 0.693%,–
O=C(Nc1ccc2oc(-c3ccccc3F)nc2c1)c1ccccc1F,inactive: 4.78%,–
CCC(=O)Nc1nc2ccc([N+](=O)[O-])cc2s1,inconclusive: 2.87%,–
Cc1c(C(=O)/C=C/N(C)C)nnn1-c1ccc(Cl)cc1Cl,inactive: 7.23%,–
Cc1ccccc1N1C(=O)c2cccc3c(N(C)CCO)ccc(c23)C1=O,inactive: -12.1%,–
CCOC(=O)c1c(O)cc(C)[nH]c1=O,inconclusive: -11.1%,–
COc1ccc(-c2nnc(Sc3nc4ccccc4o3)c3ccccc23)cc1,–,"inconclusive: 8.91 µM [falling, partial curve, poor fit]"
O=C1C=C(c2ccc(Cl)cc2)C(=O)N1Nc1ccccc1,–,"inconclusive: 5.17 µM [falling, partial curve]"
CCN(CC)S(=O)(=O)c1ccc(Cl)c(C(=O)Nc2cc(C)nn2-c2ccccc2C(F)(F)F)c1,inactive: -6.48%,–
COc1cc2c(CCNC(C)=O)c[nH]c2cc1Cl,inconclusive: 5.03%,–
Nc1cc(N)nc(SCC(=O)N2CCc3ccccc32)n1,inconclusive: -27.9%,–
Cc1ccccc1-c1nc2ccccc2[nH]1,–,"inconclusive: 3.66 µM [falling, partial curve]"
CSCCC(NS(=O)(=O)c1cccc(C(F)(F)F)c1)C(=O)N(C)CCOc1ccc(Cl)cc1 (stereo unspecified),inconclusive: 6.52%,–
O=C(NC1CCCCCC1)C1CCN(C(=O)c2cccc(Cl)c2)CC1,inactive: -1.45%,–
CCOc1cc(/C=C2\SC(=NC)N(C)C2=O)c(Br)cc1OC(C)=O,–,"inconclusive: 8.91 µM [falling, partial curve, poor fit]"
COc1ccccc1NC(=O)C(=O)NCC1COc2ccccc2O1 (stereo unspecified),–,"inconclusive: 16.4 µM [falling, partial curve]"
COC(=O)c1ccc2c(=O)n(CC3CCCO3)c(=S)[nH]c2c1 (stereo unspecified),–,"inconclusive: 0.92 µM [rising, full curve]"

# Gathered by group, the compounds so far containing bromine.
SMILES,"activity change, negative = inhibition",Potency
CCOC(=O)c1nnn(-c2nonc2N)c1CNc1ccc(C)c(Br)c1,inconclusive: -10.5%,–
CCOc1cc(/C=C2\SC(=NC)N(C)C2=O)c(Br)cc1OC(C)=O,–,"inconclusive: 8.91 µM [falling, partial curve, poor fit]"

# (further entries)

SMILES,"activity change, negative = inhibition",Potency
COc1ccc(C2c3[nH]c4ccccc4c3CCN2Cc2ccoc2)c(F)c1 (stereo unspecified),inconclusive: 3.44%,–
CCn1c(CNC(=O)COc2ccc(C(C)C)cc2)nnc1SCC(=O)Nc1cc(F)ccc1C,inactive: -0.463%,–
Cc1ccc(/C=N/NC(=O)CN2CCN(Cc3ccccc3)CC2)s1,inconclusive: 0.08%,–
Cc1csc(NC(=O)CSc2nc3ccccc3s2)n1,inconclusive: 0.148%,–
Cc1ccc([N+](=O)[O-])cc1S(=O)(=O)n1ccnc1C,inactive: 1.39%,–
Cc1cc(NC(=O)CSc2nc(C(C)C)nc3ccccc23)no1,–,"inconclusive: 14.6 µM [falling, single point]"
Cc1ccc(/C=N/NC(=O)Nc2ccccc2)o1,–,"inconclusive: 29.1 µM [rising, single point]"
COc1cc(/C=N/NC(=O)Cc2c[nH]c3ccccc23)cc(OC)c1OC,–,"inconclusive: 12.6 µM [falling, single point]"
COc1ccc(OCc2cccc(C(=O)O)c2)cc1,–,"inconclusive: 1.3 µM [falling, full curve, poor fit]"
CS(=O)(=O)N(CC(=O)N1CCCC1)Cc1ccc(Cl)c(Cl)c1,inactive: -0.802%,–
CCOc1ccccc1C1CC(=O)Nc2cc3c(cc21)OCCO3 (stereo unspecified),–,"inconclusive: 7.94 µM [falling, partial curve]"
N#C/C(=C/c1ccc(N2CCCCC2)o1)C(=O)Nc1ccc2ccccc2c1,inconclusive: -15.2%,–
Cc1ccc(-c2csc(NC(=S)NC(=O)c3ccco3)n2)cc1,inconclusive: 7.45%,–
Cc1c([C@H]2[C@@H](CC#N)C2(C)C)c2ccccc2n1C,inconclusive: 9.52%,–
COc1cc(NC(=O)Nc2ccccc2OC)c(OC)cc1NC(=O)CN1CCCCC1,–,"inconclusive: 0.1 µM [falling, full curve, poor fit]"
C=CCn1c(SCC(=O)Nc2ccccc2OC)nnc1-c1ccccn1,inconclusive: -14.5%,–
N=c1c(C(=O)NC2CCCC2)cc2c(=O)n3ccccc3nc2n1CCN1CCOCC1,inactive: 11.1%,–
CC(C)(C)c1csc(CS(=O)(=O)c2ccccn2)n1,inconclusive: -9.37%,–
